Source: paper doi:10.1101/2020.02.03.932822
These are yes or no findings as the source states them, for the method shown. In cells and extracts the contact can be indirect. Some entries that bind do so weakly or less than the wild type. For part of these data: Tags and fused reporters may be left off the sequences shown. Values belong to the molecule of their own block, whether it stands above or below them.

Protein sequences, listed by entry. Tags and fused reporters are not part of them. Lines headed by an entry give the natural chain unless they say otherwise; changes in a name come on top.
UniProt Q9UPV7: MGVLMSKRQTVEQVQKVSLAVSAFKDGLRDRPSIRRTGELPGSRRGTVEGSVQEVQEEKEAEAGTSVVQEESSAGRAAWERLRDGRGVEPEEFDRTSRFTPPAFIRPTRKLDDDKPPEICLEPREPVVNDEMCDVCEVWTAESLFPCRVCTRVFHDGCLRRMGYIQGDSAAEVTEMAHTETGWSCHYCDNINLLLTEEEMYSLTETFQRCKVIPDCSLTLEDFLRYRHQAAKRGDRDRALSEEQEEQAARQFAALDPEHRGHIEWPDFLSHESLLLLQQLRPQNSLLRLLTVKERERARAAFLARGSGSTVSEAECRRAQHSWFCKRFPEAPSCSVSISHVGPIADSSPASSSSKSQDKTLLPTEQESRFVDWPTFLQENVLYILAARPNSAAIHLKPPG
UniProt P63096: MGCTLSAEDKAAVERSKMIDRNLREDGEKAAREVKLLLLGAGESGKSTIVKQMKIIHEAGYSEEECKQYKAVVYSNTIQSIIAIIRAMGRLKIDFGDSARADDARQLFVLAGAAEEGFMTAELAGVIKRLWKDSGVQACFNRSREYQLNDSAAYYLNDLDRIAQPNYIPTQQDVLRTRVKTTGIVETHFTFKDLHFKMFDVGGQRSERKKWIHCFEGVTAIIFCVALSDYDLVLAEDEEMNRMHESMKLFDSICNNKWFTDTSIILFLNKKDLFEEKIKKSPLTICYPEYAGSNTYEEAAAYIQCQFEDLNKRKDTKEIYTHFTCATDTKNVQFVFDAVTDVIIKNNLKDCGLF

Tests used:
[1] = molecular target: GST-tagged GINIP protein (UniProt Q9UPV7); assay: pull-down
[2] = molecular target: Gi1Q306K with internal GluGlu (EE) tag (UniProt P63096); assay: co-IP
[3] = molecular target: T1, LPHN2-GFP (UniProt O95490); assay: co-IP
T1 sequence: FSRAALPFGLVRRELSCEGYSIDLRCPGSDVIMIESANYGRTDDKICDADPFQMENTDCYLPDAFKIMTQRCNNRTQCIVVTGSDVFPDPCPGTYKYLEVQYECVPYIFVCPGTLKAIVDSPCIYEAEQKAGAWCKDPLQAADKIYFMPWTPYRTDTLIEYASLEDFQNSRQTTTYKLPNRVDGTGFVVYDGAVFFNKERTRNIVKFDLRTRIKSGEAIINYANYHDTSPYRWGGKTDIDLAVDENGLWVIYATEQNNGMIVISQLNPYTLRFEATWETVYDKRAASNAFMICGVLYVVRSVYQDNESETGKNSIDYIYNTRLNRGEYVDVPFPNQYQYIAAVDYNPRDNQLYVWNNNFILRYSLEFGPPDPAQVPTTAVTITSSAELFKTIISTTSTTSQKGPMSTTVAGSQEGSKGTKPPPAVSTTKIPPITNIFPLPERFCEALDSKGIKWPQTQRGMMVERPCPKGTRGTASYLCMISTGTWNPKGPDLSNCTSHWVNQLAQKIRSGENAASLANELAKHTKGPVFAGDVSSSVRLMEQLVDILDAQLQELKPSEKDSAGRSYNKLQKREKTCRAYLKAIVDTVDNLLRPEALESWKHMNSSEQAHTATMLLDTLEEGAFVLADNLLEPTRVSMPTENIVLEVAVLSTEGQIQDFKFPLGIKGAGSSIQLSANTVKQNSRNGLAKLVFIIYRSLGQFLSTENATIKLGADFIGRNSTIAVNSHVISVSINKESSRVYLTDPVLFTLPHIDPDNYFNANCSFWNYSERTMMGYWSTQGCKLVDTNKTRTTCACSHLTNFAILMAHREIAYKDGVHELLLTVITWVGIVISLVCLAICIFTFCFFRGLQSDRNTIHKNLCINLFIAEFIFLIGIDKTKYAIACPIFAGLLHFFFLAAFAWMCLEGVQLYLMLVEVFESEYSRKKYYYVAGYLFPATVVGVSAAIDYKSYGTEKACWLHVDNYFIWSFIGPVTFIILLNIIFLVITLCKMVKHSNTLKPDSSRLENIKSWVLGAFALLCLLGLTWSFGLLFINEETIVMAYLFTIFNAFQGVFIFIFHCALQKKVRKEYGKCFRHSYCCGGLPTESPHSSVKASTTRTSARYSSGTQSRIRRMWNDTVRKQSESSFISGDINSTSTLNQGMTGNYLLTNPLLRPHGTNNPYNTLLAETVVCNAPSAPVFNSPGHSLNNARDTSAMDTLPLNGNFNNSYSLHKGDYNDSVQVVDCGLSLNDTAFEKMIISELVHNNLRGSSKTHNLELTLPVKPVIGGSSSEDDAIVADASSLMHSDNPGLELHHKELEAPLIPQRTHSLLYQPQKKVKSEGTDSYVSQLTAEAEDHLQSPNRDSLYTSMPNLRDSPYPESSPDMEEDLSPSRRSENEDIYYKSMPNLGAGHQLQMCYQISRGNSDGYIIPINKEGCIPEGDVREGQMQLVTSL

binding [1]: binds
Molecule: Gi1Q306K with internal GluGlu (EE) tag (from UniProt P63096 1-354)

binding [2]: binds
B1: LPHN2-GFP (receptor, UniProt O95490 26-1459)
chain: FSRAALPFGLVRRELSCEGYSIDLRCPGSDVIMIESANYGRTDDKICDADPFQMENTDCYLPDAFKIMTQRCNNRTQCIVVTGSDVFPDPCPGTYKYLEVQYECVPYIFVCPGTLKAIVDSPCIYEAEQKAGAWCKDPLQAADKIYFMPWTPYRTDTLIEYASLEDFQNSRQTTTYKLPNRVDGTGFVVYDGAVFFNKERTRNIVKFDLRTRIKSGEAIINYANYHDTSPYRWGGKTDIDLAVDENGLWVIYATEQNNGMIVISQLNPYTLRFEATWETVYDKRAASNAFMICGVLYVVRSVYQDNESETGKNSIDYIYNTRLNRGEYVDVPFPNQYQYIAAVDYNPRDNQLYVWNNNFILRYSLEFGPPDPAQVPTTAVTITSSAELFKTIISTTSTTSQKGPMSTTVAGSQEGSKGTKPPPAVSTTKIPPITNIFPLPERFCEALDSKGIKWPQTQRGMMVERPCPKGTRGTASYLCMISTGTWNPKGPDLSNCTSHWVNQLAQKIRSGENAASLANELAKHTKGPVFAGDVSSSVRLMEQLVDILDAQLQELKPSEKDSAGRSYNKLQKREKTCRAYLKAIVDTVDNLLRPEALESWKHMNSSEQAHTATMLLDTLEEGAFVLADNLLEPTRVSMPTENIVLEVAVLSTEGQIQDFKFPLGIKGAGSSIQLSANTVKQNSRNGLAKLVFIIYRSLGQFLSTENATIKLGADFIGRNSTIAVNSHVISVSINKESSRVYLTDPVLFTLPHIDPDNYFNANCSFWNYSERTMMGYWSTQGCKLVDTNKTRTTCACSHLTNFAILMAHREIAYKDGVHELLLTVITWVGIVISLVCLAICIFTFCFFRGLQSDRNTIHKNLCINLFIAEFIFLIGIDKTKYAIACPIFAGLLHFFFLAAFAWMCLEGVQLYLMLVEVFESEYSRKKYYYVAGYLFPATVVGVSAAIDYKSYGTEKACWLHVDNYFIWSFIGPVTFIILLNIIFLVITLCKMVKHSNTLKPDSSRLENIKSWVLGAFALLCLLGLTWSFGLLFINEETIVMAYLFTIFNAFQGVFIFIFHCALQKKVRKEYGKCFRHSYCCGGLPTESPHSSVKASTTRTSARYSSGTQSRIRRMWNDTVRKQSESSFISGDINSTSTLNQGMTGNYLLTNPLLRPHGTNNPYNTLLAETVVCNAPSAPVFNSPGHSLNNARDTSAMDTLPLNGNFNNSYSLHKGDYNDSVQVVDCGLSLNDTAFEKMIISELVHNNLRGSSKTHNLELTLPVKPVIGGSSSEDDAIVADASSLMHSDNPGLELHHKELEAPLIPQRTHSLLYQPQKKVKSEGTDSYVSQLTAEAEDHLQSPNRDSLYTSMPNLRDSPYPESSPDMEEDLSPSRRSENEDIYYKSMPNLGAGHQLQMCYQISRGNSDGYIIPINKEGCIPEGDVREGQMQLVTSL

binding [3]: binds
B2: endoglin (receptor, UniProt P17813 26-658)
chain: ETVHCDLQPVGPERGEVTYTTSQVSKGCVAQAPNAILEVHVLFLEFPTGPSQLELTLQASKQNGTWPREVLLVLSVNSSVFLHLQALGIPLHLAYNSSLVTFQEPPGVNTTELPSFPKTQILEWAAERGPITSAAELNDPQSILLRLGQAQGSLSFCMLEASQDMGRTLEWRPRTPALVRGCHLEGVAGHKEAHILRVLPGHSAGPRTVTVKVELSCAPGDLDAVLILQGPPYVSWLIDANHNMQIWTTGEYSFKIFPEKNIRGFKLPDTPQGLLGEARMLNASIVASFVELPLASIVSLHASSCGGRLQTSPAPIQTTPPKDTCSPELLMSLIQTKCADDAMTLVLKKELVAHLKCTITGLTFWDPSCEAEDRGDKFVLRSAYSSCGMQVSASMISNEAVVNILSSSSPQRKKVHCLNMDSLSFQLGLYLSPHFLQASNTIEPGQQSFVQVRVSPSVSEFLLQLDSCHLDLGPEGGTVELIQGRAAKGNCVSLLSPSPEGDPRFSFLLHFYTVPIPKTGTLSCTVALRPKTGSQDQEVHRTVFMRLNIISPDLSGCTSKGLVLPAVLGITFGAFLIGALLTAALWYIYSHTRSPSKREPVVAVAAPASSESSSTNHSIGSTQSTPCSTSSMA
